Source: article PMC8170369
No constants are given. Whether binding was seen depends on the method and setting. Binding seen in cells or lysates may run through a third protein. Some entries that bind do so weakly or less than the wild type.

The chains behind the UniProt entries cited, without tags or fusion partners. Where a name states a change or a piece, a line headed by the entry shows the natural chain unless it says otherwise. Residues count along the entry.
UniProt Q9NZQ7: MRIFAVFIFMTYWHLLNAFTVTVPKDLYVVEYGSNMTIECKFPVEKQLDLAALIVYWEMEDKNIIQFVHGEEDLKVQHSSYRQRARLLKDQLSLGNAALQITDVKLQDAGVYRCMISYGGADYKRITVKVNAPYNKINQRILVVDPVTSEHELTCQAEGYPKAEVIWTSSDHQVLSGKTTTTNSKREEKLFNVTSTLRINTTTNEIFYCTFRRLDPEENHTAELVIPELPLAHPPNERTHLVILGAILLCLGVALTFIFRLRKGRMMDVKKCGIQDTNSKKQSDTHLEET
PD-L1, transiently overexpressed in PC9ER cells (proximity ligation assay): residues 19-290 of Q9NZQ7
PD-L1-6aaDel: residues 19-284 of Q9NZQ7
UniProt P21333: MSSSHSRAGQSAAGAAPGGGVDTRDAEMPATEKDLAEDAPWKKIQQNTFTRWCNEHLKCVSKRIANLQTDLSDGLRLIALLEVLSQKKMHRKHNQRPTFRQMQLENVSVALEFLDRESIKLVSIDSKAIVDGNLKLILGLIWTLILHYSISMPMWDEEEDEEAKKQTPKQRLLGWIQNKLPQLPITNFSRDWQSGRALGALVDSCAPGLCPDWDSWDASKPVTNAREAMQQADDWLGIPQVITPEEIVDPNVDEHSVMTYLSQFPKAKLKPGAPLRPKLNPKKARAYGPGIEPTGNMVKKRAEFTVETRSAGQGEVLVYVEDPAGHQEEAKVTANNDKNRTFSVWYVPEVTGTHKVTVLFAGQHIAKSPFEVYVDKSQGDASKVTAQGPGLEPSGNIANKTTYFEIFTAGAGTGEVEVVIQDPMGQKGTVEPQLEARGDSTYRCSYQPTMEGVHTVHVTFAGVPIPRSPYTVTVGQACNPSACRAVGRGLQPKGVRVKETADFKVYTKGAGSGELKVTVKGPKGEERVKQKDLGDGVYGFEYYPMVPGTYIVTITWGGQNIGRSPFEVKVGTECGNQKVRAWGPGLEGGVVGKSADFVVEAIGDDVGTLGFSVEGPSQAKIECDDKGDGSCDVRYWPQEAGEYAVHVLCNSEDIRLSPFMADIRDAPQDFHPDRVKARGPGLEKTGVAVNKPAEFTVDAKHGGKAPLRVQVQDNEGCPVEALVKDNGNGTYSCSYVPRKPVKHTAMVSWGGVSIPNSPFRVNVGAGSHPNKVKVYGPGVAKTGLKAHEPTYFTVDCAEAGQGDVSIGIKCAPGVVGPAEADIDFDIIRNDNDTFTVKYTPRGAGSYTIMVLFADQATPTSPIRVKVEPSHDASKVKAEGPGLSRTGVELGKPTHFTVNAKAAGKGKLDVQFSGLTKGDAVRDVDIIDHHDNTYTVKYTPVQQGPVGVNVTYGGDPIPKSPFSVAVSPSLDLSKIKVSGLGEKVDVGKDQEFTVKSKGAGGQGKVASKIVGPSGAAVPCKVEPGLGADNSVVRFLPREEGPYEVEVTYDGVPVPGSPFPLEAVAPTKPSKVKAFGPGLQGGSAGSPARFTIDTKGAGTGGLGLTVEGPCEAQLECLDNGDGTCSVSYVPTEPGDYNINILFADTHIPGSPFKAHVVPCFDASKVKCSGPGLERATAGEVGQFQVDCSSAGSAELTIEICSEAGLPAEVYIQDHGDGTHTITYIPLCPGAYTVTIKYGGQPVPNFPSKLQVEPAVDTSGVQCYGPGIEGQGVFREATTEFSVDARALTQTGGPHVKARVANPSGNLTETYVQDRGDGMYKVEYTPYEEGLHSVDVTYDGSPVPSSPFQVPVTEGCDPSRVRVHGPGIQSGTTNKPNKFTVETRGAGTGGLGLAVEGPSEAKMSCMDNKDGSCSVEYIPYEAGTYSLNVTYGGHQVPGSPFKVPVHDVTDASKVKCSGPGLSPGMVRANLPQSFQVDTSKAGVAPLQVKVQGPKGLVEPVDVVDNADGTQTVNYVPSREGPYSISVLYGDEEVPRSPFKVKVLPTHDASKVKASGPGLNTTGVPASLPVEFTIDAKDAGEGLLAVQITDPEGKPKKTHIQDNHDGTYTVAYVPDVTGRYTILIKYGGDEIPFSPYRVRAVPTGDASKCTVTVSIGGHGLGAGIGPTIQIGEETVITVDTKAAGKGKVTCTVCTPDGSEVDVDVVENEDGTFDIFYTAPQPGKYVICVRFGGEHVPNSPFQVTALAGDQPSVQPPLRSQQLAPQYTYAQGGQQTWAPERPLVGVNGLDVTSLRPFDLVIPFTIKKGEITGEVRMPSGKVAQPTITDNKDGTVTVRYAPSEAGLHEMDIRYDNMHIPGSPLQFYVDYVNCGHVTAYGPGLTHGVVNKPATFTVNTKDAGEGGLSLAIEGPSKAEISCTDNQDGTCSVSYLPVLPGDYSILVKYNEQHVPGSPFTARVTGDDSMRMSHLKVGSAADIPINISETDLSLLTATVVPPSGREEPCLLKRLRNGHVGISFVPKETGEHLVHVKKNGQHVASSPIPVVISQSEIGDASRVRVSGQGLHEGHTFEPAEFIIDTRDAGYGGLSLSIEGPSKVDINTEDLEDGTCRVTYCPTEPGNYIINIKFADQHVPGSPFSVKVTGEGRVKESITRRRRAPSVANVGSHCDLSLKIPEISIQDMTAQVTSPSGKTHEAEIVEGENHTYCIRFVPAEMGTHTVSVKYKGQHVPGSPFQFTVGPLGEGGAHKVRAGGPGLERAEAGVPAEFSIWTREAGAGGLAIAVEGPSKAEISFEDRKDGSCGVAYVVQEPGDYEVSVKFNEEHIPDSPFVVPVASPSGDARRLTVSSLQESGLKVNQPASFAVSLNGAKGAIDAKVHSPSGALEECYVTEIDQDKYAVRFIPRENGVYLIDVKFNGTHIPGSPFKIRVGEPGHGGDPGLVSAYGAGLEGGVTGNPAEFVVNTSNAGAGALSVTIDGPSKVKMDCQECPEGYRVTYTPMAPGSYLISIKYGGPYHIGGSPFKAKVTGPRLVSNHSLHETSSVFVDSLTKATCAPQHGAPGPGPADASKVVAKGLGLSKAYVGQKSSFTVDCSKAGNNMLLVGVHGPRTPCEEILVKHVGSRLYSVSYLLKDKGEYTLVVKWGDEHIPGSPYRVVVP

Assays:
[1] = biological target: programmed death ligand 1 (PD-L1), endogenous in PC9ER cells (human (endogenous in PC9ER)) (UniProt Q9NZQ7); assay: co-IP; extracts of PC9ER cells precipitated with a control antibody or an antibody to PD-L1, blots for PLC-γ1, FLNA and PD-L1; mild lysis buffer (50 mM HEPES pH 7.5, 150 mM NaCl, 1% Triton X-100), 2 h at 4°C
[2] = biological target: PD-L1 (full length), expressed in HEK293 cells (UniProt Q9NZQ7); assay: co-IP; HEK293 cells transfected with PD-L1 (full length), PD-L1-6aaDel or PD-L1-16aaDel; IP and IB, blots for PLC-γ1, PD-L1 and GAPDH
PD-L1-6aaDel = PD-L1-6aaDel (UniProt Q9NZQ7); assay: as above
[3] = biological target: PD-L1, transiently overexpressed in PC9ER cells (proximity ligation assay) (UniProt Q9NZQ7); assay: proximity ligation; PC9ER cells transiently overexpressing PD-L1 and PLC-γ1, fixed, permeabilised, antibodies to PD-L1 and PLC-γ1, Duolink red; also with prestimulation by EGF (Figure S7B)

binding [2]	binding (PD-L1-6aaDel)	binding [3]	Molecule	binding [1]
			Filamin A (FLNA), endogenous in PC9ER cells (from UniProt P21333 1-2647)	binds
binds	binds		phospholipase C-γ1 (PLC-γ1), in cell extracts (enzyme, UniProt P19174 1-1290) MAGAASPCANGCGPGAPSDAEVLHLCRSLEVGTVMTLFYSKKSQRPERKTFQVKLETRQITWSRGADKIEGAIDIREIKEIRPGKTSRDFDRYQEDPAFRPDQSHCFVILYGMEFRLKTLSLQATSEDEVNMWIKGLTWLMEDTLQAPTPLQIERWLRKQFYSVDRNREDRISAKDLKNMLSQVNYRVPNMRFLRERLTDLEQRSGDITYGQFAQLYRSLMYSAQKTMDLPFLEASTLRAGERPELCRVSLPEFQQFLLDYQGELWAVDRLQVQEFMLSFLRDPLREIEEPYFFLDEFVTFLFSKENSVWNSQLDAVCPDTMNNPLSHYWISSSHNTYLTGDQFSSESSLEAYARCLRMGCRCIELDCWDGPDGMPVIYHGHTLTTKIKFSDVLHTIKEHAFVASEYPVILSIEDHCSIAQQRNMAQYFKKVLGDTLLTKPVEISADGLPSPNQLKRKILIKHKKLAEGSAYEEVPTSMMYSENDISNSIKNGILYLEDPVNHEWYPHYFVLTSSKIYYSEETSSDQGNEDEEEPKEVSSSTELHSNEKWFHGKLGAGRDGRHIAERLLTEYCIETGAPDGSFLVRESETFVGDYTLSFWRNGKVQHCRIHSRQDAGTPKFFLTDNLVFDSLYDLITHYQQVPLRCNEFEMRLSEPVPQTNAHESKEWYHASLTRAQAEHMLMRVPRDGAFLVRKRNEPNSYAISFRAEGKIKHCRVQQEGQTVMLGNSEFDSLVDLISYYEKHPLYRKMKLRYPINEEALEKIGTAEPDYGALYEGRNPGFYVEANPMPTFKCAVKALFDYKAQREDELTFIKSAIIQNVEKQEGGWWRGDYGGKKQLWFPSNYVEEMVNPVALEPEREHLDENSPLGDLLRGVLDVPACQIAIRPEGKNNRLFVFSISMASVAHWSLDVAADSQEELQDWVKKIREVAQTADARLTEGKIMERRKKIALELSELVVYCRPVPFDEEKIGTERACYRDMSSFPETKAEKYVNKAKGKKFLQYNRLQLSRIYPKGQRLDSSNYDPLPMWICGSQLVALNFQTPDKPMQMNQALFMTGRHCGYVLQPSTMRDEAFDPFDKSSLRGLEPCAISIEVLGARHLPKNGRGIVCPFVEIEVAGAEYDSTKQKTEFVVDNGLNPVWPAKPFHFQISNPEFAFLRFVVYEEDMFSDQNFLAQATFPVKGLKTGYRAVPLKNNYSEDLELASLLIKIDIFPAKENGDLSPFSGTSLRERGSDASGQLFHGRAREGSFESRYQQPFEDFRISQEHLADHFDSRERRAPRRTRVNGDNRL	binds
		binds	PLC-γ1, transiently overexpressed in PC9ER cells (proximity ligation assay) (enzyme, UniProt P19174 1-1290) MAGAASPCANGCGPGAPSDAEVLHLCRSLEVGTVMTLFYSKKSQRPERKTFQVKLETRQITWSRGADKIEGAIDIREIKEIRPGKTSRDFDRYQEDPAFRPDQSHCFVILYGMEFRLKTLSLQATSEDEVNMWIKGLTWLMEDTLQAPTPLQIERWLRKQFYSVDRNREDRISAKDLKNMLSQVNYRVPNMRFLRERLTDLEQRSGDITYGQFAQLYRSLMYSAQKTMDLPFLEASTLRAGERPELCRVSLPEFQQFLLDYQGELWAVDRLQVQEFMLSFLRDPLREIEEPYFFLDEFVTFLFSKENSVWNSQLDAVCPDTMNNPLSHYWISSSHNTYLTGDQFSSESSLEAYARCLRMGCRCIELDCWDGPDGMPVIYHGHTLTTKIKFSDVLHTIKEHAFVASEYPVILSIEDHCSIAQQRNMAQYFKKVLGDTLLTKPVEISADGLPSPNQLKRKILIKHKKLAEGSAYEEVPTSMMYSENDISNSIKNGILYLEDPVNHEWYPHYFVLTSSKIYYSEETSSDQGNEDEEEPKEVSSSTELHSNEKWFHGKLGAGRDGRHIAERLLTEYCIETGAPDGSFLVRESETFVGDYTLSFWRNGKVQHCRIHSRQDAGTPKFFLTDNLVFDSLYDLITHYQQVPLRCNEFEMRLSEPVPQTNAHESKEWYHASLTRAQAEHMLMRVPRDGAFLVRKRNEPNSYAISFRAEGKIKHCRVQQEGQTVMLGNSEFDSLVDLISYYEKHPLYRKMKLRYPINEEALEKIGTAEPDYGALYEGRNPGFYVEANPMPTFKCAVKALFDYKAQREDELTFIKSAIIQNVEKQEGGWWRGDYGGKKQLWFPSNYVEEMVNPVALEPEREHLDENSPLGDLLRGVLDVPACQIAIRPEGKNNRLFVFSISMASVAHWSLDVAADSQEELQDWVKKIREVAQTADARLTEGKIMERRKKIALELSELVVYCRPVPFDEEKIGTERACYRDMSSFPETKAEKYVNKAKGKKFLQYNRLQLSRIYPKGQRLDSSNYDPLPMWICGSQLVALNFQTPDKPMQMNQALFMTGRHCGYVLQPSTMRDEAFDPFDKSSLRGLEPCAISIEVLGARHLPKNGRGIVCPFVEIEVAGAEYDSTKQKTEFVVDNGLNPVWPAKPFHFQISNPEFAFLRFVVYEEDMFSDQNFLAQATFPVKGLKTGYRAVPLKNNYSEDLELASLLIKIDIFPAKENGDLSPFSGTSLRERGSDASGQLFHGRAREGSFESRYQQPFEDFRISQEHLADHFDSRERRAPRRTRVNGDNRL	
